Laboratory results published in article PMC9168989.
No constants are given. Whether binding was seen depends on the method and setting. Binding seen in cells or lysates may run through a third protein. Some entries that bind do so weakly or less than the wild type.

Legend:
[1] = biological target: Proliferating Cell Nuclear Antigen (PCNA), endogenous in HEK293T cells (human (endogenous in HEK293T)) (UniProt P12004); assay: co-IP
[2] = biological target: FLAG-tagged SARS-CoV-2 membrane protein (M) (SARS-CoV-2) (UniProt P0DTC5); assay: co-IP; […] (50 mM Tris-HCl pH 7.4, 150 mM NaCl, 1 mM EDTA, 1% Triton X-100); […]

Substance: FLAG-tagged SARS-CoV-2 membrane protein (M) (from UniProt P0DTC5 1-222)
- binding [1]: binds

Substance: Proliferating Cell Nuclear Antigen (PCNA), endogenous in HEK293T cells (from UniProt P12004 1-261)
- binding [2]: binds
